Assay results from publication PMC8698454 (Antibiotics, 2021).

Experiments:
[1] = general procedure: Fmoc solid-phase peptide synthesis; Rink Amide HL 100-200 mesh (0.98 mmol/g) for linear peptides; 2-chlorotrityl chloride resin (1.63 mmol/g) for cyclic pep; HBTU/HOBt/DIPEA; PyBOP/DIPEA for cyclization; details: whole synthesis
[2] = general procedure: Fmoc solid-phase peptide synthesis; 2-chlorotrityl chloride resin; HBTU/HOBt/DIPEA; PyBOP/DIPEA for cyclization; details: whole synthesis, scale 0.18 mmol

Substance | isolated mass ([1]; scale 0.21 mmol) | isolated yield ([1]; scale 0.21 mmol) | further results
N3-PEG200-RWWRF | 44.4 mg | 17.2% | 
N3-PEG400-RWWRF | 31.5 mg | 18.3% | 
RWWRFK(N3) |  |  | isolated mass ([1]; scale 0.18 mmol): 18.0 mg; isolated yield ([1]; scale 0.18 mmol): 9.9%
c(RWWRFK(N3)) |  |  | isolated mass [2]: 22 mg; isolated yield [2]: 12.3%
